Assay results reported in the supplement of paper PMC3682954.
Counter-ions that a name gives are not always drawn. ± gives the standard deviation of the averaged measurements. Some of the results follow. Single values are uncertain, as repeats are few or missing.

System: RAW 264.7
Assay: HMGB1-induced TNF-alpha production relative to HMGB1-stimulated control; higher = more TNF-alpha secretion (less inhibition)
Settings: stimulus: HMGB1 5 ug/ml, 18 h
[1] = compound concentration: 1 ug/ml

| SMILES | HMGB1-induced TNF-alpha production [1] [%] | HMGB1-induced TNF-alpha production (compound concentration: 3 uM) [%] |
| --- | --- | --- |
| CCCc1cc(=O)oc2cc(O)cc(O)c12 [5,7-Dihydroxy-4-propylcoumarin] | 107 | – |
| C=CCN1CCCC1CNC(=O)c1cc2nn[nH]c2cc1OC (configuration not stated) [Alizapride HCl] | – | 91.6 |
| CC(CCc1ccc(O)cc1)NCCc1ccc(O)c(O)c1 (configuration not stated) [Dobutamine] | – | 61.4 |
| CC(CCc1ccc(O)cc1)NCCc1ccc(O)c(O)c1 (configuration not stated) | – | 89.8 |
| CC(CCc1ccc(O)cc1)NCCc1ccc(O)c(O)c1 (configuration not stated) [Dobutamine hydrochloride] | – | 55.1 ± 14 |
| Cc1cn([C@H]2C[C@H](O)[C@@H](CO)O2)c(=O)[nH]c1=O [Thymidine] | 72.9 | – |
| N[C@@H](CCC(=O)N[C@@H](CSN=O)C(=O)NCC(=O)O)C(=O)O [S-Nitrosoglutathione] | – | 109 |
| CCOc1nc2cccc(C(=O)OC(C)OC(=O)OC3CCCCC3)c2n1Cc1ccc(-c2ccccc2-c2nn[nH]n2)cc1 (configuration not stated) | – | 74.9 |
| O=c1cc(O)cc(/C=C/c2ccc(O)c(O)c2)o1 [Hispidin] | – | 93.5 |
| CCN1CCC[C@H]1CNC(=O)c1cc(S(N)(=O)=O)ccc1OC | – | 105 |
| CCN1CCC[C@H]1CNC(=O)c1cc(S(N)(=O)=O)ccc1OC [Sulpiride S (-)] | – | 98.6 |
| Nc1ccc(S(N)(=O)=O)cc1 [Sulfanilamide] | – | 104 |
| Nc1ccc(S(N)(=O)=O)cc1 | – | 82.4 |
| CC1CCN(CCCC(=O)c2ccc(F)cc2)CC1 [Metylperon] | – | 95.7 |
| O=c1[nH]c(=O)n([C@H]2C[C@H](O)[C@@H](CO)O2)cc1/C=C/Br [(E)-5-(2-Bromovinyl)-2'-deoxyuridine] | 79.3 | 71 |
| CC(C)N(CCC(=O)c1ccc2ccccc2c1)Cc1ccccc1 | – | 60.9 |
| CCC(C)(C)c1ccc(CC(C)CN2C[C@@H](C)O[C@@H](C)C2)cc1 (some centres not stated) [Amorolfine] | – | 84.2 |
| COc1ccc(CCN(C)CCCC(C#N)(c2ccc(OC)c(OC)c2)C(C)C)cc1OC (racemic) [(±)-Verapamil hydrochloride] | – | 101 |
| CC[C@]12CCCN3CCc4c(n(c5ccccc45)[C@@](O)(C(=O)OC)C1)[C@@H]32 [Vincamine] | 61.8 | 68.1 |
| CC[C@]12CCCN3CCc4c(n(c5ccccc45)[C@@](O)(C(=O)OC)C1)[C@@H]32 | – | 81.4 |
| S=P(N1CC1)(N1CC1)N1CC1 | – | 87.7 ± 1.5 |
| COc1cc(N)c(Cl)cc1C(=O)NC1CCN(Cc2ccccc2)CC1 | – | 82.2 |
| COc1cc(N)c(Cl)cc1C(=O)NC1CCN(Cc2ccccc2)CC1 [Clebopride maleate] | – | 62.9 |

| SMILES | HMGB1-induced TNF-alpha production [1] [%] | HMGB1-induced TNF-alpha production (compound concentration: 3 uM) [%] |
| --- | --- | --- |
| Nc1nc(N)nc(-c2cc(Cl)ccc2Cl)n1 [Irsogladine] | – | 94.5 |
| Nc1nc(N)nc(-c2cc(Cl)ccc2Cl)n1 | – | 90.6 |
| Nc1nc(N)nc(-c2cc(Cl)ccc2Cl)n1 [Irsogladine Maleate] | – | 98.3 |
| CCN1CCCC1CNC(=O)c1cc(S(=O)(=O)CC)c(N)cc1OC (configuration not stated) [Amisulpride] | – | 107 ± 8 |
| COc1cc2oc(=O)cc(C)c2cc1OC [6,7-Dimethoxy-4-methylcoumarin] | 69.9 | – |
| CCc1c(C(=O)NCCc2ccc(N3CCCCC3)cc2)[nH]c2ccc(Cl)cc12 | – | 108 |
| CC(C)[C@H]1CC[C@H](C(=O)N[C@H](Cc2ccccc2)C(=O)O)CC1 [Nateglinide] | – | 123 |
| CC(C)[C@H]1CC[C@H](C(=O)N[C@H](Cc2ccccc2)C(=O)O)CC1 | – | 91.9 ± 25 |
| COc1c(O)cc2c(c1O)[C@@H]1O[C@H](CO)[C@@H](O)[C@H](O)[C@H]1OC2=O | – | 77.3 |
| CC(=O)Oc1cccc(C(=O)O)c1OC(C)=O | – | 80.2 |
| COc1ccc(CCCOC(Cn2ccnc2)c2ccc(OC)cc2)cc1 (configuration not stated) | – | 90.7 |
| CC(C)c1nc(CN(C)C(=O)N[C@H](C(=O)N[C@@H](Cc2ccccc2)C[C@H](O)[C@H](Cc2ccccc2)NC(=O)OCc2cncs2)C(C)C)cs1 | – | 112 |
| CCCOC(=O)c1c(-c2ccccc2)nc(CC)c(C(=O)SCC)c1CCC | – | 93.5 |
| COc1ccccc1OCCNCC(O)COc1cccc2[nH]c3ccccc3c12 (configuration not stated) | – | 79.2 |
| COc1ccccc1OCCNCC(O)COc1cccc2[nH]c3ccccc3c12 (configuration not stated) [Carvedilol] | – | 85.9 ± 9.3 |
| O=C(NCC1CCCCN1)c1cc(OCC(F)(F)F)ccc1OCC(F)(F)F (configuration not stated) [Flecainide] | – | 104 |
| O=C(NCC1CCCCN1)c1cc(OCC(F)(F)F)ccc1OCC(F)(F)F (configuration not stated) [Flecainide acetate] | – | 85.4 |
| CC1CCc2cc(F)cc3c(=O)c(C(=O)O)cn1c23 (configuration not stated) [Flumequine] | – | 69.6 |
| CC1CCc2cc(F)cc3c(=O)c(C(=O)O)cn1c23 (configuration not stated) | – | 105 |
| CC1(C)S[C@@H]2[C@H](/N=C/N3CCCCCC3)C(=O)N2[C@H]1C(=O)O | – | 127 |
| CCCCOc1ccc(OCCCN2CCOCC2)cc1 | – | 81.2 |
| CCCCOc1ccc(OCCCN2CCOCC2)cc1 [Pramoxine hydrochloride] | – | 101 |
| Cc1nc2c(OCc3ccccc3)cccn2c1CC#N | – | 75.5 |

| SMILES | HMGB1-induced TNF-alpha production [1] [%] | HMGB1-induced TNF-alpha production (compound concentration: 3 uM) [%] |
| --- | --- | --- |
| CCOC(=O)C1=C(C)NC(C)=C(C(=O)OC)C1c1cccc([N+](=O)[O-])c1 (configuration not stated) | – | 89.5 ± 28 |
| CCOC(=O)C1=C(C)NC(C)=C(C(=O)OC)C1c1cccc([N+](=O)[O-])c1 (configuration not stated) [Nitrendipine] | – | 83.7 ± 12 |
| CC1(C)S[C@@H]2[C@H](N3C(=O)[C@@H](c4ccccc4)NC3(C)C)C(=O)N2[C@H]1C(=O)O | – | 90.9 |
| N[C@H](C(=O)O)[C@H](Cc1ccccc1)C(=O)O [L-Beta-threo-benzyl-aspartate] | – | 110 |
| CCn1cc(C(=O)O)c(=O)c2cc(F)c(N3CCNCC3)cc21 | – | 95.6 |
| CCn1cc(C(=O)O)c(=O)c2cc(F)c(N3CCNCC3)cc21 [Norfloxacin] | – | 82 ± 3.6 |
| CN(C)c1nc(N)c(C(=O)NC(=N)N)nc1Cl [5-(N,N-Dimethyl)amiloride hydrochloride] | – | 76.4 |
| O=C(c1ccc(OCCN2CCCCC2)cc1)c1c(-c2ccc(O)cc2)sc2cc(O)ccc12 | – | 81.9 |
| O=C(c1ccc(OCCN2CCCCC2)cc1)c1c(-c2ccc(O)cc2)sc2cc(O)ccc12 [Raloxifene] | – | 62.3 |
| O=C(c1ccc(OCCN2CCCCC2)cc1)c1c(-c2ccc(O)cc2)sc2cc(O)ccc12 [Raloxifene hydrochloride] | – | 101 ± 6 |
| CC(CN1c2ccccc2Sc2ccccc21)N(C)C (configuration not stated) [Promethazine] | – | 93.8 |
| CC(CN1c2ccccc2Sc2ccccc21)N(C)C (configuration not stated) | – | 80.9 |
| CC(CN1c2ccccc2Sc2ccccc21)N(C)C (configuration not stated) [Promethazine hydrochloride] | – | 115 ± 0.4 |
| O=C(CCCCCCCCCCCCC1CCCC1)Nc1ccc(S(=O)(=O)c2ccc(NC(=O)CCCCCCCCCCCCC3CCCC3)cc2)cc1 | – | 87.9 |
| NS(=O)(=O)c1cc2c(cc1C(F)(F)F)NC(Cc1ccccc1)NS2(=O)=O (configuration not stated) [Bendroflumethiazide] | – | 85.1 |
| NS(=O)(=O)c1cc2c(cc1C(F)(F)F)NC(Cc1ccccc1)NS2(=O)=O (configuration not stated) | – | 104 |
| COc1ccccc1CNCCCCCCNCCCCCCCCNCCCCCCNCc1ccccc1OC [Methoctramine tetrahydrochloride] | – | 93.5 |
| Nn1nnc2ccccc21 [1-Aminobenzotriazole] | – | 97.1 |
| CN(C)CCCC1(c2ccc(F)cc2)OCc2cc(C#N)ccc21 (configuration not stated) [Citalopram Hydrobromide] | – | 116 |
| CN(C)CCCC1(c2ccc(F)cc2)OCc2cc(C#N)ccc21 (configuration not stated) [Citalopram hydrobromide] | – | 89.6 ± 10 |
| CN(C)CCCC1(c2ccc(F)cc2)OCc2cc(C#N)ccc21 (configuration not stated) | – | 81.8 |
| CN(C)CCCC1(c2ccc(F)cc2)OCc2cc(C#N)ccc21 (configuration not stated) [Citalopram] | – | 97.9 |
| CCCC(CCC)C(=O)O | – | 80.6 |

Individual results from the list:
Value of O=C(CCCCCCCCCCCCC1CCCC1)Nc1ccc(S(=O)(=O)c2ccc(NC(=O)CCCCCCCCCCCCC3CCCC3)cc2)cc1 under HMGB1-induced TNF-alpha production (compound concentration: 3 uM) [%]: 87.9
Value of CN(C)CCCC1(c2ccc(F)cc2)OCc2cc(C#N)ccc21 (configuration not stated) [Citalopram hydrobromide] under HMGB1-induced TNF-alpha production (compound concentration: 3 uM) [%]: 89.6 ± 10
Value of CC(CN1c2ccccc2Sc2ccccc21)N(C)C (configuration not stated) under HMGB1-induced TNF-alpha production (compound concentration: 3 uM) [%]: 80.9
Value of CC(CN1c2ccccc2Sc2ccccc21)N(C)C (configuration not stated) [Promethazine hydrochloride] under HMGB1-induced TNF-alpha production (compound concentration: 3 uM) [%]: 115 ± 0.4
Value of CCn1cc(C(=O)O)c(=O)c2cc(F)c(N3CCNCC3)cc21 under HMGB1-induced TNF-alpha production (compound concentration: 3 uM) [%]: 95.6

(continued)

| SMILES | HMGB1-induced TNF-alpha production [1] [%] | HMGB1-induced TNF-alpha production (compound concentration: 3 uM) [%] |
| --- | --- | --- |
| CCCC(CCC)C(=O)O [Valproic acid sodium] | – | 103 |
| CCCC(CCC)C(=O)O [Valproic acid] | – | 102 ± 13 |
| Cc1onc(-c2ccccc2)c1C(=O)N[C@@H]1C(=O)N2[C@@H]1SC(C)(C)[C@@H]2C(=O)O [Oxacillin] | – | 85.9 |
| Cc1onc(-c2ccccc2)c1C(=O)N[C@@H]1C(=O)N2[C@@H]1SC(C)(C)[C@@H]2C(=O)O | – | 87.2 |
| O=C(O)CNC(=O)C(CS)Cc1ccccc1 (configuration not stated) [Thiorphan] | – | 107 |
| CN1Cc2sccc2C(c2ccc(O)c(O)c2)C1 (configuration not stated) | – | 88.2 |
| COc1ccccc1N1CCN(CCN2C(=O)CC3(CCCC3)CC2=O)CC1 [BMY 7378 dihydrochloride] | – | 84.7 |
| OCC(O)CN1CCN(c2ccccc2)CC1 (configuration not stated) | – | 78.3 |
| CN(C)CCC(c1ccc(Cl)cc1)c1ccccn1 (configuration not stated) [Chlorpheniramine] | – | 97.2 ± 23 |
| CN(C)CCC(c1ccc(Cl)cc1)c1ccccn1 (configuration not stated) [Chlorpheniramine maleate] | – | 69.4 |
| C[C@H](O)C(=O)C1=Nc2c(nc(N)[nH]c2=O)NC1 [Sepiapterin] | – | 106 |
| COc1cc(N)c(Cl)cc1C(=O)NC1CCN(CCCOc2ccc(F)cc2)CC1OC (configuration not stated) [Cisapride] | – | 83.5 ± 28 |
| N[C@H](Cc1ccc2ccccc2c1)C(=O)O [3-(2-Naphthyl)-D-alanine] | 89.4 | – |
| CC(C)(C)c1cc(/C=C(\C#N)C(N)=S)cc(C(C)(C)C)c1O [Tyrphostin AG 879] | – | 165 |
| COC1=CC(=O)C[C@@H](C)[C@]12Oc1c(Cl)c(OC)cc(OC)c1C2=O [Griseofulvin] | 60.8 | 74.6 |
| COC1=CC(=O)C[C@@H](C)[C@]12Oc1c(Cl)c(OC)cc(OC)c1C2=O | – | 90.5 ± 1.2 |
| COc1ccc(-c2coc3cc(O)cc(O)c3c2=O)cc1 [Biochanin A] | 53.3 | – |
| COC(=O)Nc1nc2cc(C(=O)c3ccc(F)cc3)ccc2[nH]1 [Flubendazole] | – | 84.9 |
| COC(=O)Nc1nc2cc(C(=O)c3ccc(F)cc3)ccc2[nH]1 | – | 125 |
| COC(=O)Nc1nc2cc(C(=O)c3ccc(F)cc3)ccc2[nH]1 [Flubendazol] | – | 124 |
